This is an account of results in patent US20230242673A1.

Sequences of proteins named here, by UniProt entry; tags and fusion partners are left off. A change or cut given only in a name is not applied to a line headed by its entry.
UniProt Q8NBP7: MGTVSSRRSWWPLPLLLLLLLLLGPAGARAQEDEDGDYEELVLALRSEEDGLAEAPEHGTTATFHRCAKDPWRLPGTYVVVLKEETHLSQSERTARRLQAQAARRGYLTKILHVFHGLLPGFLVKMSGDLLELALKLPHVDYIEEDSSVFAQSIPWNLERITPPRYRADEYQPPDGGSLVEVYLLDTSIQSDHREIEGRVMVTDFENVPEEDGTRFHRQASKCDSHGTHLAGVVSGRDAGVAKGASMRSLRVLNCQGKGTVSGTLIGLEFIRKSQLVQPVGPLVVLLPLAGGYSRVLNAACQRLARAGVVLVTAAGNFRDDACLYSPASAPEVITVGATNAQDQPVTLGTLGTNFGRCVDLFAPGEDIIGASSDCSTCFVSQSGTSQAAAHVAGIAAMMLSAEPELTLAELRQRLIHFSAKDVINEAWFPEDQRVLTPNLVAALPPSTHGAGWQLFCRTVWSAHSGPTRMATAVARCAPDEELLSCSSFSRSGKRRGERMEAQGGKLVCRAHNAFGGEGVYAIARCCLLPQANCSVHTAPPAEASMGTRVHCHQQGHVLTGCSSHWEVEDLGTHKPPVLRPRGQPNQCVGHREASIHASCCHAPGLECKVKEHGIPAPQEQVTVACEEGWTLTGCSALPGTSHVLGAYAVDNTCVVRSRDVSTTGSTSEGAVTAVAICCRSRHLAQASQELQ

Where a chain is given by its changes, count along the chain named. Results are given in words; binding and its absence hold for the method and conditions named. Some entries that bind do so weakly or less than the wild type.

In experiment [1] the target is original PCSK9 (PCSK9 (human) recombinant protein, Abnova Cat No: H00255738-P01) (human) (UniProt Q8NBP7). As to the kind of experiment: ELISA, original PCSK9 coated at 1 ug/mL, IgG in threefold dilutions from 10 ug/mL. In general terms: An ELISA detects its analyte on a solid surface through an enzyme-linked reagent.
For experiment [2] the target is unchanged. As to the kind of experiment: Octet, IgG immobilized, original PCSK9 as analyte in twofold dilutions from 200 nM, 1:1 model. On the technique in general: In BLI a coated tip is dipped into the sample, and binding shifts an interference pattern.

B1: hz7D1.11 IgG (antibody, V domains shown)
VH: QVQLVQSGAEVKKPGASVKVSCKASGFNIKDYYMHWVRQAPGQGLEWIGYIDPENGDTEYAPKFQGRATMTADTSISTAYMELSRLRSDDTAVYYCRSSPFTYWGQGTLVTVSS
VL: DVVMTQSPLSLPVTLGQPASISCKSSQSLLDSDGKTYLNWLQQRPGQSPRRLIYLVSKLDSGVPDRFSGSGSGTDFTLKISRVEAEDVGVYYCWQGTHFPQTFGGGTKVEIKR
Take B1: the binding result in experiment [1] and in experiment [2] was “binds” throughout.

B2: hz7D1.22 IgG (antibody, V domains shown)
VH: B1 VH with F27Y, N28T, I29F, I48M, A68V
VL: B1 VL with L41F
For the molecule B2, the binding entry in experiment [1] and in experiment [2] was “binds” each time.
